Data reported in US20260042860A1.
No constants are given. Whether binding was seen depends on the method and setting. Some results given as binding are weak or reduced against the parent protein; the word gives no strength. For some assays here: Sequences can lack the tags named with a protein.

Legend:
[1] = target: T1, CD24 on CD24(+) DSRCT cell lines (BER, BER-luc, SK-DSRCT-2-luc) (human); assay: flow cytometry on DSRCT cell line BER
T1 sequence: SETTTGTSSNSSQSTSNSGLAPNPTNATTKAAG

human CD24 (human) = target: T2, human CD24 (human); assay: SPR, Biacore
T2 sequence: T1 sequence

B1: murine CD24×CD3 (huOKT3) BsAb (BC303) (bispecific antibody, V domains shown)
V domain 1: DVHLQESGPDLVKPSQSLSLTCTVTGYSITSGYTWHWIRQFPGNTVEWMGYIQYTGSTRYNPALRGRLSISRDTSKNQFFLQLISVTTADTGTYFCARGTTASFDYWGQGTTLTVAS
V domain 2: DIVMSQSPSSLNVSVGEKVTMRCRSSQSLLYSSDQKNYLTWYQQKPGQSPKLLISWASTRASGVPDRFTGSGSGTDFTLTISSVKAEDLGVYYCQQYFIYPLTFGVGTKLGLK
For B1, the binding [1] was “binds” and the binding (human CD24 (human)) was “binds”.
